# Test results reported in the supplement of paper PMC8728848.
# This is one part of the list.
# B1: CLEC9a (Mus musculus), Q8BRU4 (protein)
# chain: MHAEEIYTSLQWDIPTSEASQKCQSPSKCSGAWCVVTMISCVVCMGLLATSIFLGIKFFQVSSLVLEQQERLIQQDTALVNLTQWQRKYTLEYCQALLQRSLHSGSDCSPCPHNWIQNGKSCYYVFERWEMWNISKKSCLKEGASLFQIDSKEEMEFISSIGKLKGGNKYWVGVFQDGISGSWFWEDGSSPLSDLLPAERQRSAGQICGYLKDSTLISDKCDSWKYFICEKKAFGSCI
# Legend:
# Assay in all cases: glycan array binding signal (z-score within array); higher = stronger binding
# Conditions in all cases: glycan notation: IUPAC condensed, linker removed
# [1] = molecular target: Neu5Ac(a2-3)Gal(b1-3)GlcNAc(b1-3)Gal(b1-3)GlcNAc
# In short: (§1)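 The Consortium for Functional Glycomics database supplied 3228 glycan arrays, of which those lacking an available protein sequence were dropped. The binding signal, a within-array Z-score, was averaged across arrays of the same protein sequence and across linkers. Negative scores can be read as non-binding.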
# [2] = molecular target: Neu5Ac(a2-3)Gal(b1-3)GlcNAc(b1-3)Gal(b1-4)GlcNAc
# In short: as §1
# [3] = molecular target: Neu5Ac(a2-3)Gal(b1-3)GlcNAc(b1-3)GalNAc
# In short: as §1
# [4] = molecular target: Neu5Ac(a2-3)Gal(b1-3)GlcNAc6S
# In short: as §1
# [5] = molecular target: Neu5Ac(a2-3)Gal(b1-3)[Fuc(a1-4)]GlcNAc
# In short: as §1
# [6] = molecular target: Neu5Ac(a2-3)Gal(b1-3)[Fuc(a1-4)]GlcNAc(b1-3)Gal(b1-3)[Fuc(a1-4)]GlcNAc
# In short: as §1
# [7] = molecular target: Neu5Ac(a2-3)Gal(b1-3)[Fuc(a1-4)]GlcNAc(b1-3)Gal(b1-4)[Fuc(a1-3)]GlcNAc
# In short: as §1
# [8] = molecular target: Neu5Ac(a2-3)Gal(b1-3)[Neu5Ac(a2-3)Gal(b1-4)]GlcNAc
# In short: as §1
# [9] = molecular target: Neu5Ac(a2-3)Gal(b1-3)[Neu5Ac(a2-6)]GalNAc
# In short: as §1
# Neu5Ac(a2-3)Gal(b1-4)Glc = molecular target: Neu5Ac(a2-3)Gal(b1-4)Glc
# In short: as §1
# [10] = molecular target: Neu5Ac(a2-3)Gal(b1-4)GlcNAc
# In short: as §1
# [11] = molecular target: Neu5Ac(a2-3)Gal(b1-4)GlcNAc(b1-2)Man(a1-3)[GlcNAc(b1-2)Man(b1-4)GlcNAc(b1-2)Man(a1-6)]Man(b1-4)GlcNAc(b1-4)GlcNAc
# In short: as §1
# [12] = molecular target: Neu5Ac(a2-3)Gal(b1-4)GlcNAc(b1-2)Man(a1-3)[Neu5Ac(a2-6)Gal(b1-4)GlcNAc(b1-2)Man(a1-6)]Man(b1-4)GlcNAc(b1-4)GlcNAc
# In short: as §1
# [13] = molecular target: Neu5Ac(a2-3)Gal(b1-4)GlcNAc(b1-3)Gal(b1-3)GlcNAc
# In short: as §1
# [14] = molecular target: Neu5Ac(a2-3)Gal(b1-4)GlcNAc(b1-3)Gal(b1-4)GlcNAc
# In short: as §1
# [15] = molecular target: Neu5Ac(a2-3)Gal(b1-4)GlcNAc(b1-3)Gal(b1-4)GlcNAc(b1-3)Gal(b1-4)GlcNAc
# In short: as §1
# [16] = molecular target: Neu5Ac(a2-3)Gal(b1-4)GlcNAc(b1-3)Gal(b1-4)[Fuc(a1-3)]GlcNAc
# In short: as §1
# [17] = molecular target: Neu5Ac(a2-3)Gal(b1-4)GlcNAc(b1-3)GalNAc
# In short: as §1
# [18] = molecular target: Neu5Ac(a2-3)Gal(b1-4)GlcNAc(b1-6)[Gal(b1-3)]GalNAc
# In short: as §1
# [19] = molecular target: Neu5Ac(a2-3)Gal(b1-4)GlcNAc(b1-6)[Neu5Ac(a2-3)Gal(b1-3)]GalNAc
# In short: as §1
# [20] = molecular target: Neu5Ac(a2-3)Gal(b1-4)GlcNAc6S
# In short: as §1
# [21] = molecular target: Neu5Ac(a2-3)Gal(b1-4)[Fuc(a1-3)]GlcNAc
# In short: as §1
# [22] = molecular target: Neu5Ac(a2-3)Gal(b1-4)[Fuc(a1-3)]GlcNAc(b1-3)Gal
# In short: as §1
# [23] = molecular target: Neu5Ac(a2-3)Gal(b1-4)[Fuc(a1-3)]GlcNAc(b1-3)Gal(b1-4)GlcNAc
# In short: as §1
# [24] = molecular target: Neu5Ac(a2-3)Gal(b1-4)[Fuc(a1-3)]GlcNAc(b1-3)Gal(b1-4)[Fuc(a1-3)]GlcNAc(b1-3)Gal(b1-4)[Fuc(a1-3)]GlcNAc
# In short: as §1
# [25] = molecular target: Neu5Ac(a2-3)Gal(b1-4)[Fuc(a1-3)]GlcNAc(b1-3)GalNAc
# In short: as §1
# [26] = molecular target: Neu5Ac(a2-3)Gal(b1-4)[Fuc(a1-3)]GlcNAc(b1-6)[Gal(b1-3)]GalNAc
# In short: as §1
# [27] = molecular target: Neu5Ac(a2-3)Gal(b1-4)[Fuc(a1-3)]GlcNAc(b1-6)[Neu5Ac(a2-3)Gal(b1-3)]GalNAc
# In short: as §1
# [28] = molecular target: Neu5Ac(a2-3)Gal(b1-4)[Fuc(a1-3)]GlcNAc6S
# In short: as §1
# [29] = molecular target: Neu5Ac(a2-3)Gal6S(b1-4)GlcNAc
# In short: as §1
# [30] = molecular target: Neu5Ac(a2-3)Gal6S(b1-4)[Fuc(a1-3)]GlcNAc
# In short: as §1
# Neu5Ac(a2-3)GalNAc = molecular target: Neu5Ac(a2-3)GalNAc
# In short: as §1
# [31] = molecular target: Neu5Ac(a2-3)GalNAc(b1-4)GlcNAc
# In short: as §1
# [32] = molecular target: Neu5Ac(a2-3)[GalNAc(b1-4)]Gal(b1-4)Glc
# In short: as §1
# [33] = molecular target: Neu5Ac(a2-3)[GalNAc(b1-4)]Gal(b1-4)GlcNAc
# In short: as §1
# [34] = molecular target: Neu5Ac(a2-3)[GalNAc(b1-4)]Gal(b1-4)GlcNAc(b1-3)GalNAc
# In short: as §1
# [35] = molecular target: Neu5Ac(a2-3)[Neu5Ac(a2-6)]GalNAc
# In short: as §1
# Neu5Ac(a2-6)Gal = molecular target: Neu5Ac(a2-6)Gal
# In short: as §1
# Neu5Ac(a2-6)Gal(b1-4)Glc = molecular target: Neu5Ac(a2-6)Gal(b1-4)Glc
# In short: as §1
# [36] = molecular target: Neu5Ac(a2-6)Gal(b1-4)GlcNAc
# In short: as §1
binder,measurement,setting,value
B1,glycan array binding signal (z-score),[1],-1.66
same,glycan array binding signal (z-score),[2],-1.01
same,glycan array binding signal (z-score),[3],-1.06
same,glycan array binding signal (z-score),[4],0.331
same,glycan array binding signal (z-score),[5],-0.871
same,glycan array binding signal (z-score),[6],0.365
same,glycan array binding signal (z-score),[7],-0.962
same,glycan array binding signal (z-score),[8],0.15
same,glycan array binding signal (z-score),[9],-0.457
same,glycan array binding signal (z-score),Neu5Ac(a2-3)Gal(b1-4)Glc,0.304
same,glycan array binding signal (z-score),[10],1.26
same,glycan array binding signal (z-score),[11],2.01
same,glycan array binding signal (z-score),[12],-0.866
same,glycan array binding signal (z-score),[13],-0.03
same,glycan array binding signal (z-score),[14],0.79
same,glycan array binding signal (z-score),[15],-1.1
same,glycan array binding signal (z-score),[16],-2.04
same,glycan array binding signal (z-score),[17],-0.825
same,glycan array binding signal (z-score),[18],-0.727
same,glycan array binding signal (z-score),[19],-0.1
same,glycan array binding signal (z-score),[20],1.55
same,glycan array binding signal (z-score),[21],-0.264
same,glycan array binding signal (z-score),[22],-1.7
same,glycan array binding signal (z-score),[23],1.4
same,glycan array binding signal (z-score),[24],0.387
same,glycan array binding signal (z-score),[25],1.77
same,glycan array binding signal (z-score),[26],0.701
same,glycan array binding signal (z-score),[27],1.35
same,glycan array binding signal (z-score),[28],-0.627
same,glycan array binding signal (z-score),[29],-0.067
same,glycan array binding signal (z-score),[30],0.049
same,glycan array binding signal (z-score),Neu5Ac(a2-3)GalNAc,-1.07
same,glycan array binding signal (z-score),[31],0.071
same,glycan array binding signal (z-score),[32],0.981
same,glycan array binding signal (z-score),[33],-0.497
same,glycan array binding signal (z-score),[34],0.172
same,glycan array binding signal (z-score),[35],-0.586
same,glycan array binding signal (z-score),Neu5Ac(a2-6)Gal,0.412
same,glycan array binding signal (z-score),Neu5Ac(a2-6)Gal(b1-4)Glc,0.132
same,glycan array binding signal (z-score),[36],1.5

# Eleven entries from above in another layout.
binder	measurement	setting	value
B1	glycan array binding signal (z-score)	[7]	-0.962
same	glycan array binding signal (z-score)	[8]	0.15
same	glycan array binding signal (z-score)	[13]	-0.03
same	glycan array binding signal (z-score)	[18]	-0.727
same	glycan array binding signal (z-score)	[21]	-0.264
same	glycan array binding signal (z-score)	[22]	-1.7
same	glycan array binding signal (z-score)	[30]	0.049
same	glycan array binding signal (z-score)	[31]	0.071
same	glycan array binding signal (z-score)	[32]	0.981
same	glycan array binding signal (z-score)	[33]	-0.497
same	glycan array binding signal (z-score)	Neu5Ac(a2-6)Gal(b1-4)Glc	0.132
